Test results as given in the supplement of paper PMC3334620.
Over roughly 33,000 sequences, “E-score (-0.5 to 0.5)” has its median near -0.015; the highest 2% begin near 0.3. This is one part of the list.

Target: T1, Abf1 (UniProt P14164)
T1 sequence: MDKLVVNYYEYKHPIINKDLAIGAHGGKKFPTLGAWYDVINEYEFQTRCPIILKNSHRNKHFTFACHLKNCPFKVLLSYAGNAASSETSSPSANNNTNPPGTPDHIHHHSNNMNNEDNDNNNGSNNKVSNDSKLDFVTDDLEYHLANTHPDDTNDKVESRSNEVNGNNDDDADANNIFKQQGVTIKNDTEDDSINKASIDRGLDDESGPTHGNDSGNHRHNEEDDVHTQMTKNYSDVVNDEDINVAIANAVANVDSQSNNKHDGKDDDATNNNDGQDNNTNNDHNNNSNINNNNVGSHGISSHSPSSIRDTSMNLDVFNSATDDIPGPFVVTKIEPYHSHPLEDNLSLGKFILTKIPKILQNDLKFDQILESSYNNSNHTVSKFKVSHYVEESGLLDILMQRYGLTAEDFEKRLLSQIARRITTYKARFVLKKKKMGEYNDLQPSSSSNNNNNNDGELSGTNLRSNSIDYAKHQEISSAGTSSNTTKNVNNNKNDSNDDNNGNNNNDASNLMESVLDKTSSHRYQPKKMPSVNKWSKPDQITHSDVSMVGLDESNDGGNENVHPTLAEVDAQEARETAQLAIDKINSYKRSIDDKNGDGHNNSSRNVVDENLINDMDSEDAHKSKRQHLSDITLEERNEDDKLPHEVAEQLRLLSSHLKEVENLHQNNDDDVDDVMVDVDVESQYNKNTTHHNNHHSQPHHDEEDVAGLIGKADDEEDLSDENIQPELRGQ
Assay: PBM E-score (8-mer binding enrichment) (E-score (-0.5 to 0.5)); higher = stronger / more preferred TF binding
Conditions: protein concentration: 200 nM; construct: GST-full length
Summary of the method: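 PURExpress in vitro transcription/translation supplied GST-tagged yeast transcription factors, either full-length or DNA-binding domain. Applied at about 100-200 nM to universal all-10-mer Agilent arrays double-stranded by primer extension, the bound protein was detected with fluorescent anti-GST. E-scores, modified Wilcoxon-Mann-Whitney statistics, were given by the Universal PBM Analysis Suite to ungapped eight-base words pooled with their reverse complements after masliner normalisation.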

| Sequence | PBM E-score |
| --- | --- |
| TCCACTAA | 0.0233 |
| CGACGGTC | 0.173 |
| GGTTGGAC | -0.202 |
| AAGTGCTA | -0.145 |
| AGCGTCGA | -0.00081 |
| CAAACAGC | -0.104 |
| AATGGCCA | -0.157 |
| AGCTTTCA | 0.0515 |
| ACCCCGAT | -0.0491 |
| GATCATGA | 0.227 |
| CTCATCAC | 0.217 |
| GCTGCATA | 0.153 |
| CACCTTGC | -0.04 |
| TGGCTACA | -0.0535 |
| CAAACAAA | 0.0701 |
| AAGGGAGA | -0.0764 |
| AGGGCCTA | -0.185 |
| ACGCTTTC | -0.079 |
| CTGGCATC | -0.326 |
| TCCGGTCA | -0.00303 |
| AATGTGCT | 0.143 |
| AATCCGCA | 0.0369 |
| CTATGGTC | -0.169 |
| CTGGCGTA | -0.056 |
| AAGGTATC | 0.129 |

| Sequence | PBM E-score |
| --- | --- |
| ATACACGC | 0.0882 |
| CTGCCCCA | 0.0404 |
| ATCGGGTG | 0.158 |
| ATTGTACG | 0.256 |
| GTCCAGTA | -0.0693 |
| AACACAAT | 0.0216 |
| GCTATGAA | -0.0376 |
| GAAACTAA | 0.0636 |
| ATCCGAGA | -0.0475 |
| CTACCTGC | -0.0913 |
| CACGACCA | 0.153 |
| AGGTATAG | -0.1 |
| CTGAACAC | 0.0466 |
| AGCCATCC | -0.0585 |
| GCGTAGGA | -0.086 |
| CGCCCAGC | -0.136 |
| GAGTACCC | -0.167 |
| AGGCCGTC | 0.0126 |
| CACAGCCA | -0.272 |
| AGCTGGGA | -0.0373 |
| AAATGACC | 0.215 |
| AAAACTTT | -0.115 |
| AACGGCCA | 0.13 |
| CACTGGTC | -0.0801 |
| ATATTAAG | 0.112 |

| Sequence | PBM E-score |
| --- | --- |
| GCAACGCC | -0.152 |
| AGTTGCTC | -0.131 |
| GCGTCAAA | 0.0641 |
| CGGTTACC | 0.00897 |
| ACACGCGT | 0.0699 |
| GAATGCCA | -0.122 |
| AGTAGCGG | 0.0593 |
| CGAAACGC | -0.179 |
| GGCGGGGA | -0.0761 |
| CCGATCTA | -0.207 |
| ACAGTGGT | -0.0354 |
| ATCCTTTC | -0.0367 |
| GGCCTAAA | -0.131 |
| ACCAGTGG | -0.261 |
| ACAGACAG | -0.0188 |
| GACGTCGA | -0.026 |
| ACTGTCGA | 0.00425 |
| CGAATACC | -0.0202 |
| AGATCCAA | -0.00396 |
| ATTGATCC | 0.0261 |
| TAACGTTA | 0.236 |
| TCGCGCGA | 0.175 |
| AGAACTAG | -0.208 |
| GGGTCGAA | -0.15 |
| CGCAGAAG | -0.101 |

An excerpt of these results, as comma-separated lines.
Sequence,PBM E-score
AGATCCAA,-0.00396
ATTGATCC,0.0261
TAACGTTA,0.236
TCGCGCGA,0.175
AGAACTAG,-0.208

Further records follow.

| Sequence | PBM E-score |
| --- | --- |
| ATACCGGA | -0.0534 |
| AGGCCGGG | -0.2 |
| AGATCTCC | -0.153 |
| CAAGTGCG | -0.0242 |
| ATGTGACA | 0.288 |
| CCCAATCA | -0.0424 |
| CGTAGGTA | 0.142 |
| CTATCGCA | -0.0586 |
| GCCTTGTA | -0.0394 |
| CTGTGCTA | -0.00739 |
| AAACTCAC | -0.136 |
| ACGACTGC | 0.13 |
| GAGCCACA | -0.15 |
| ATAGATTG | -0.0569 |
| CGCCAAAG | -0.111 |
| CATGCCTA | -0.227 |
| CCCTCGCC | -0.185 |
| TTGCCAAA | 0.0748 |
| AACCCTGA | -0.00511 |
| TACAAACA | 0.0936 |
| CCGGCACC | 0.0532 |
| CTTATGCC | -0.0544 |
| CACGCGCG | 0.0534 |
| AACGCCAG | -0.0605 |
| ATCGATTG | 0.14 |

Reformatted with tabs: part of the list above
Sequence	PBM E-score
CACTGGTC	-0.0801
ATATTAAG	0.112

Carrying on.

| Sequence | PBM E-score |
| --- | --- |
| GCAAGGGC | -0.372 |
| ACAAGAAG | -0.0978 |
| ATAAGAGG | 0.0476 |
| GTGGCAGA | 0.00546 |
| ATGTGCCG | 0.1 |
| CATCCCGG | -0.0328 |
| ACCTGTAG | -0.299 |
| GAACATGA | -0.103 |
| CCGCTTAC | -0.189 |
| CGAAATTA | 0.234 |
| ACGTTATC | -3e-05 |
| AGCACTGA | -0.353 |
| GCCACCGA | -0.0995 |
| AGACCGAC | -0.00992 |
| AACAGCCT | -0.102 |
| ATCCTGAC | 0.0365 |
| TGGAGTAA | 0.0103 |
| CGAAATCC | 0.0314 |
| CCCAGGGA | -0.439 |
| CGAGTATA | -0.0629 |
| ACATATGC | -0.204 |
| TCTTGCAA | -0.0161 |
| ATATTTTA | 0.181 |
| CGCTAACA | -0.0116 |
| AGGTAAAG | -0.0766 |

| Sequence | PBM E-score |
| --- | --- |
| ACTGCGCA | 0.181 |
| AATTACTG | -0.0681 |
| ACCCCATC | -0.128 |
| ACAGTTGA | -0.00384 |
| CATGGACC | 0.00992 |
| ATCCGACC | 0.0717 |
| ATCAGTAG | 0.0503 |
| AGTTTATA | 0.0788 |
| CCCATAAC | 0.0387 |
| CGAATTAA | 0.16 |
| AAACGTGC | 0.0805 |
| AGCTTCCG | -0.0688 |
| CCATGTCG | 0.0896 |
| ATGGCGTC | -0.16 |
| ACTTGCGA | 0.0437 |
| AAGTATAT | 0.103 |
| CCGGACCA | -0.203 |
| ACAAGCCC | -0.126 |
| ACAGGCAT | -0.0158 |
| AGCCGGAG | -0.0233 |
| AGGATCGA | -0.0985 |
| GTATACAC | 0.107 |
| CCTGAACC | -0.0922 |
| GAAGGCAC | -0.0473 |
| CCATGTCA | 0.262 |

A different layout for some results above.
Sequence | PBM E-score
ACTGCGCA | 0.181
AATTACTG | -0.0681
ACCCCATC | -0.128
ACAGTTGA | -0.00384
CATGGACC | 0.00992

(further entries)

| Sequence | PBM E-score |
| --- | --- |
| GGCAGCCC | -0.278 |
| AGCAAGCG | 0.0258 |
| CCTTGGAC | -0.0293 |
| CTTAGTGC | -0.0935 |
| GGGGACAC | -0.232 |
| GTTGCGCA | 0.0411 |
| TGTCCAAA | 0.14 |
| GTGTCCGA | 0.105 |
| AAGACCTT | -0.0155 |
| ATTCCGTC | -0.0258 |
| AAGCCTAC | -0.101 |
| CACCGGGC | -0.0781 |
| GGGGGTGA | -0.0468 |
| AACCCACT | 0.0769 |
| AGGAGGAT | -0.316 |
| CTTGGAAA | -0.144 |
| ACCAGCCT | -0.0776 |
| GCTTGTCC | 0.119 |
| CCAGCGAG | -0.113 |
| CCCGCTTC | -0.212 |
| GTTAAAAA | 0.22 |
| ATCAATTC | 0.153 |
